By UniProt entry, the sequences of proteins in these tests, tags left out. Residues count along the entry.
UniProt Q9NZQ7, residues 19-290: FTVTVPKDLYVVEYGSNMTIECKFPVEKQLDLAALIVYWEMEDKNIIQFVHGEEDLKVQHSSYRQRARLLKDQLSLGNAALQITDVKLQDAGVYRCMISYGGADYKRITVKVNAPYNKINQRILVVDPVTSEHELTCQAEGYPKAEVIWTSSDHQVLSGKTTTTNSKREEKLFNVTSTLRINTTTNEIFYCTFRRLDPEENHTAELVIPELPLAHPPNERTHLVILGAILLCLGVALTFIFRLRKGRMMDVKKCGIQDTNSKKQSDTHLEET
UniProt Q7Z6Z7: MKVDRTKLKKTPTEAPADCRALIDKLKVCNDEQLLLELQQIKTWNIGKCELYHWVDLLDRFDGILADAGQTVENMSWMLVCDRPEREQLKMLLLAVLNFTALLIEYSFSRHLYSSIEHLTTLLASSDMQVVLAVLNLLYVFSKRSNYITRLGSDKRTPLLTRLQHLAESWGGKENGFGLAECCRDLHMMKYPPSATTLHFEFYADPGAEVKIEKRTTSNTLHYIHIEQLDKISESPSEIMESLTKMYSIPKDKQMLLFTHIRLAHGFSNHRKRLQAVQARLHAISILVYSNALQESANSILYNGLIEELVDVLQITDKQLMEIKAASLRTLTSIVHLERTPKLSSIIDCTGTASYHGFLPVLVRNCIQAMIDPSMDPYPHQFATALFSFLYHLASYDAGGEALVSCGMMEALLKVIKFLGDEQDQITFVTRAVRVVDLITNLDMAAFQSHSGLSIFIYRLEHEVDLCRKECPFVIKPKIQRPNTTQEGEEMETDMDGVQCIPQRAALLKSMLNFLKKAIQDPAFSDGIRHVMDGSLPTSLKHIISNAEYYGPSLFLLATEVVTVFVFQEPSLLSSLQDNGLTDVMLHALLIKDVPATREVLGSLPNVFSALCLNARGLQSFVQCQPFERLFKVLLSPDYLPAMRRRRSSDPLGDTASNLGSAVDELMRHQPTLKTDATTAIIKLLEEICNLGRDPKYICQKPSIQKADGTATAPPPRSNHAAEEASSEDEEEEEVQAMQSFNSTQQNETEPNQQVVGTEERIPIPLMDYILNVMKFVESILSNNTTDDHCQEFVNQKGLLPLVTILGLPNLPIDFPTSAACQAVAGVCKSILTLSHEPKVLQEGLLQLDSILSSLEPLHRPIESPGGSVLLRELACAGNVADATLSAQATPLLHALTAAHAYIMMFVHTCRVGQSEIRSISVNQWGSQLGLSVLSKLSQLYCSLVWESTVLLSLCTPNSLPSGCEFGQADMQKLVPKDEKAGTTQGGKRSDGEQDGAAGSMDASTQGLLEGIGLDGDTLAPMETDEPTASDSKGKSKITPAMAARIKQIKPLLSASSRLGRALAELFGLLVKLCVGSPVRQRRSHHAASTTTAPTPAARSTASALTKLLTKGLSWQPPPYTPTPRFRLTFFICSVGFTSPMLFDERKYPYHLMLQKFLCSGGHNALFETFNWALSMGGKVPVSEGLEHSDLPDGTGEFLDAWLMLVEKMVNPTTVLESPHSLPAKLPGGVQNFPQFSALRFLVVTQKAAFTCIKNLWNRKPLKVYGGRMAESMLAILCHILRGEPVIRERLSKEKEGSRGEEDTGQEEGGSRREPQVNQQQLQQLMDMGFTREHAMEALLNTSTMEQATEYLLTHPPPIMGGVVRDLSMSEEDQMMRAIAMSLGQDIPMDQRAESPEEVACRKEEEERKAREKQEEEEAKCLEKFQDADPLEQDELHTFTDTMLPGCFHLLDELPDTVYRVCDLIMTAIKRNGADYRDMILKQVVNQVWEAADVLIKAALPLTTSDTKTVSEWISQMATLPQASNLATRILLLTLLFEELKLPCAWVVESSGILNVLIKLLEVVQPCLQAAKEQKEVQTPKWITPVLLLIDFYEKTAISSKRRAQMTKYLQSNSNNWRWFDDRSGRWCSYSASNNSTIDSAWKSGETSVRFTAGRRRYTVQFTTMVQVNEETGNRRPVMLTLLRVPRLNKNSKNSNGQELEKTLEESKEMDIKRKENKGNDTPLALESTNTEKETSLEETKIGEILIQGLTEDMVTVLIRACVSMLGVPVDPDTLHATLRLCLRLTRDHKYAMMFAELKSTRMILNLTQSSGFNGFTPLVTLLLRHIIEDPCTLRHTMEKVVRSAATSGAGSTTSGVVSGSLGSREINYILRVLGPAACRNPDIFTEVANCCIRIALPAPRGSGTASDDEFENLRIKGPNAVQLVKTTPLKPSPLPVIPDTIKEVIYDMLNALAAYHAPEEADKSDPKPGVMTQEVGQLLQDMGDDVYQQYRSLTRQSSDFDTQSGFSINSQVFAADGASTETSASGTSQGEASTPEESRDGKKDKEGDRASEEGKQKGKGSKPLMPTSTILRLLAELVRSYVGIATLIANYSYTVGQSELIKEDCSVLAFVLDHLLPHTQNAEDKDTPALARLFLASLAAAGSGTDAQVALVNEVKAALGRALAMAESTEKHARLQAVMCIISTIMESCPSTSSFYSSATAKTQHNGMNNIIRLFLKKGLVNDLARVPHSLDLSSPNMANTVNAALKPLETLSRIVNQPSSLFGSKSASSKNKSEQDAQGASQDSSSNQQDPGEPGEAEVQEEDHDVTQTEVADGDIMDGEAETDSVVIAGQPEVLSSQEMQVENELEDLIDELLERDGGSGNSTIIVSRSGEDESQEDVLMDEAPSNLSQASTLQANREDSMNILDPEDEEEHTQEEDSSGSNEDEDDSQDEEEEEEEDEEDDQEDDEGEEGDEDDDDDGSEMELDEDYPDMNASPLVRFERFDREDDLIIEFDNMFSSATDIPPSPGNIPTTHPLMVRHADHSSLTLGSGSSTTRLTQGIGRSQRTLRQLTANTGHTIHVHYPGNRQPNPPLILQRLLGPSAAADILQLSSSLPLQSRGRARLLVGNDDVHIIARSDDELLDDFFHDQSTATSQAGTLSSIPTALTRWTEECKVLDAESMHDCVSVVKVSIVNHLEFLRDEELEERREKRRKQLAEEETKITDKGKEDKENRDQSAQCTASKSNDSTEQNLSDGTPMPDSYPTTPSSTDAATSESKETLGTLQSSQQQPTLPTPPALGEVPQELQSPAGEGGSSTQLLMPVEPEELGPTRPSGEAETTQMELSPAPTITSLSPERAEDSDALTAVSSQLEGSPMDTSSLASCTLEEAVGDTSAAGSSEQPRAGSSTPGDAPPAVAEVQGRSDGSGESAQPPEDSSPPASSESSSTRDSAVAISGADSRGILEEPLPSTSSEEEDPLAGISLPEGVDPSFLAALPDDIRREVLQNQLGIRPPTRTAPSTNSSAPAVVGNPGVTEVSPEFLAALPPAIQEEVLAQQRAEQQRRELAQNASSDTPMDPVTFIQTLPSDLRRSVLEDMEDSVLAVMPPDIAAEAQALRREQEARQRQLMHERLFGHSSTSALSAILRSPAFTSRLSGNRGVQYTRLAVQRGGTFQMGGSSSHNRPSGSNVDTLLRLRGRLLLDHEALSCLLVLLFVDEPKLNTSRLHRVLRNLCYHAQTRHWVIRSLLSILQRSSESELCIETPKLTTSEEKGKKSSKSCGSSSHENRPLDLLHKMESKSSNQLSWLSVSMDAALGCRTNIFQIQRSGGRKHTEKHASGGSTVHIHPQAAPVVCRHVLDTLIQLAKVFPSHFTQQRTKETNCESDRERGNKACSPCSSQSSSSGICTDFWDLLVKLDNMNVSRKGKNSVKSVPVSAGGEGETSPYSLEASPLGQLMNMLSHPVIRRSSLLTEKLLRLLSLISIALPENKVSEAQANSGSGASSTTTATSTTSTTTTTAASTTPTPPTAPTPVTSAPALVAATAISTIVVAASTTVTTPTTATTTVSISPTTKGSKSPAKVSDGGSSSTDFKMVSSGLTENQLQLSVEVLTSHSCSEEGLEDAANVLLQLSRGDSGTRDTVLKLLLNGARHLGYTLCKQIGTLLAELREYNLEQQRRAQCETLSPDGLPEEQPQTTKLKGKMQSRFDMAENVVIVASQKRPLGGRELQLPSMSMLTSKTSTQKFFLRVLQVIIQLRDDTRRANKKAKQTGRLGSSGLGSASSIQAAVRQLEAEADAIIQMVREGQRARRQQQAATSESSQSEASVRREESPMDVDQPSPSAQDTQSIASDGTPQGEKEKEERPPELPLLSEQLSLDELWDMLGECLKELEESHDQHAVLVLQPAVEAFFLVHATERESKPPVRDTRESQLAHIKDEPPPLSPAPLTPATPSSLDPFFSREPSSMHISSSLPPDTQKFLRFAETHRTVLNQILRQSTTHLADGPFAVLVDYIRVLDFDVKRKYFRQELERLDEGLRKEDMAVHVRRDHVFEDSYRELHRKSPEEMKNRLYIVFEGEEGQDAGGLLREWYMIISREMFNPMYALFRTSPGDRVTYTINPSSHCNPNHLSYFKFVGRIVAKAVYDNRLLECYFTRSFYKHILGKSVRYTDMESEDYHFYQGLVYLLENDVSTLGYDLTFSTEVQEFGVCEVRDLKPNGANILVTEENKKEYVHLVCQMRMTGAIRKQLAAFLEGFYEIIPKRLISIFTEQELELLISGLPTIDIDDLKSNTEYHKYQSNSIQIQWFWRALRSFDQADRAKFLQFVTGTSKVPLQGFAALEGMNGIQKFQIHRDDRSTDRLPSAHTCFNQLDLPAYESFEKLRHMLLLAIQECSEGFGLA

According to article PMC9663433:

Biological target: PD-L1-Flag (human) (UniProt Q9NZQ7)
Assay: affinity purification with mass spectrometry; lysate of HEK-293T cells with stable PD-L1-Flag or Vector-Flag in polysome buffer (25 mM Tris-HCl pH 7.5, 150 mM KCl, 0.5 mM DTT, 0.5% NP-40); Flag-tag magnetic beads 4 h at 4 °C; eluted with 3X Flag peptide

binding: binds
Substance: endogenous HUWE1 (HEK-293T cells) (from UniProt Q7Z6Z7 1-4374) (enzyme)

No constants are given. Whether binding was seen depends on the method and setting. In cells and extracts the contact can be indirect. These calls come from enrichment with a bait or labelling near it, and not all partners need be listed.
